# Laboratory results taken from paper PMC3910159.
# Results are given in words; binding and its absence hold for the method and conditions named. Binding seen in cells or lysates may run through a third protein. Some results given as binding are weak or reduced against the parent protein; the word gives no strength.
# Molecular target: ezrin (UniProt P15311)
# Test: FRET or BRET; time-domain FLIM (TCSPC) of a TMA of paraffin embedded tissue; ezrin tagged by a Cy3-conjugated antibody, PKCα by an Alexa546 antibody; FRET read as a reduction in the ezrin-Cy3 lifetime; analysis in TRI2
substance,measurement,value
Protein kinase C α (from UniProt P17252 1-672),binding,binds
